The values that follow come from publication PMC8596017, “Evolutionary mode for the functional preservation of fast-evolving Drosophila telomere capping proteins” (Open Biology, 2021).

Protein sequences, listed by entry. Tags and fused reporters are not part of them.
UniProt Q8KM30: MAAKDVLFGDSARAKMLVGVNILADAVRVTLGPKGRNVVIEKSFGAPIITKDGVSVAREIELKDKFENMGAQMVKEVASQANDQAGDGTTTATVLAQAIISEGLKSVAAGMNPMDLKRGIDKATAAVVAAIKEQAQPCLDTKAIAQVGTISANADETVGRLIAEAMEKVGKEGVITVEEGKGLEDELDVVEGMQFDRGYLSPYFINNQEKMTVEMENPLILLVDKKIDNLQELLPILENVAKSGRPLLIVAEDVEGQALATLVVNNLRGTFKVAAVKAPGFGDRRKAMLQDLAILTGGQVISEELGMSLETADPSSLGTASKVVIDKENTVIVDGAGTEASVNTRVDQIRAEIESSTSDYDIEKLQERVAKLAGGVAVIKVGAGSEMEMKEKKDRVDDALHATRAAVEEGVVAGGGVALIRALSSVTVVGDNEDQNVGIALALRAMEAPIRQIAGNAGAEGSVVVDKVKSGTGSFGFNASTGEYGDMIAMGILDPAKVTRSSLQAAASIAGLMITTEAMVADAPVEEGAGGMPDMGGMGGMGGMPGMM

For assay [1], the target named is T1, Verrocchio (Ver), wild type, Flag-tagged (D. melanogaster, UniProt Q9VTZ2 1-214).
T1 construct: Verrocchio (Ver), Terminin subunit of D. melanogaster; also called wild-type Ver; source: Arctic express cells (DE3), co-expressed with Moi-HA from a bicistronic pET vector; cell lysate, heparin-sepharose fractions, anti-FLAG M2 eluate; not shown: Flag, N-terminal, kept
T1 sequence (looked up): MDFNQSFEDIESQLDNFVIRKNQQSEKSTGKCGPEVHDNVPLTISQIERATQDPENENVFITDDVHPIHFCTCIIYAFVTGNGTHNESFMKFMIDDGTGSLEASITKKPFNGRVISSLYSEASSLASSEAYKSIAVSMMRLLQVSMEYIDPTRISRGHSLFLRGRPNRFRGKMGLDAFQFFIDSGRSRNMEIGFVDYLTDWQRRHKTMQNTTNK
In words: co-IP; Flag immune-affinity purification: heparin-sepharose fractions loaded on anti-FLAG M2 affinity matrix, washed with buffer I (25 mM Tris HCl pH 7.5, 100 mM NaCl, 1 mM CaCl2, 1 mM MgCl2) or PBS, eluted with 3× Flag peptide.

Assay [2] deals with T1, Verrocchio (Ver), wild type, Flag-tagged. In words: co-elution on heparin-sepharose chromatography; cleared bacterial cell extracts of co-expressed Flag-Ver (or mutant) and Moi-HA loaded on a heparin-sepharose column; elution by a 0.1–1 M NaCl gradient in 20 mM Tris pH 7.5, 1 ml fractions; CCB stained PAGE.

These are yes or no findings as the source states them, for the method shown. For some assays here: In cells and extracts the contact can be indirect. Some entries that bind do so weakly or less than the wild type. Sequences can lack the tags named with a protein.

“Cpn60 chaperone (from UniProt Q8KM30 1-548)”: the binding result in assay [1] is on record as “binds”.

B1: Modigliani (Moi), HA-tagged at the C-terminus (natural protein, D. melanogaster, UniProt B7Z0L8 1-178, looked up)
chain: MSLVPEASTSRAPKYCYFFKTLLVEELELETSYHNLHYGQCALIGRLAFKANQYRLENVRVKCLPKKYSLGEGTVSLLILGLTHDKVVENRVSTGRYCIVRGEVVLHNVQHPKGAKLTAGGVYDKINSLSNDPLAQKQYLSALLATYRPAIDLWYIQVIDRAEDLLTRRLEMRSLIEK
notes: DTL/Modigliani (Moi), Terminin subunit of D. melanogaster; also called DTL; source: Arctic express cells (DE3), co-expressed with Ver from a bicistronic pET vector; cell lysate, heparin-sepharose fractions, anti-FLAG M2 eluate; not shown: HA, C-terminal, kept
Turning to B1, the binding entry in assay [2] is reported as “binds”.
